Laboratory results published in patent publication US20140227708A1.
No constants are given. Whether binding was seen depends on the method and setting. In cells and extracts the contact can be indirect. Some binding calls cover weakened binding; strength is not graded here. Where a sequence is shown, tags or fusion partners need not be part of it.

What was measured:
[1] = target: endogenous Argonaute 2 (Ago2) (human) (UniProt Q9UKV8); experiment: anti-FLAG co-immunoprecipitation from HEK293T lysate, Western blot (FIG. 3)
[2] = target: myc-Ago2 (Homo sapiens (Human)) (UniProt Q9UKV8); experiment: anti-myc co-immunoprecipitation from myc-Ago2 stable cell line, anti-FLAG Western blot (FIG. 6)
[3] = target: endogenous Argonaute 2 (Ago2) (human) (UniProt Q9UKV8); experiment: FLAG co-immunoprecipitation, anti-Ago2 Western blot (FIG. 12)
[4] = target: myc-Ago2 (Homo sapiens (Human)) (UniProt Q9UKV8); experiment: anti-myc co-immunoprecipitation, anti-FLAG Western blot (FIG. 6)
[5] = target: endogenous Argonaute 2 (Ago2) (human) (UniProt Q9UKV8); experiment: FLAG-agarose co-immunoprecipitation, Western blot (FIG. 3)
[6] = target: endogenous Argonaute 2 (Ago2) (human) (UniProt Q9UKV8); experiment: FLAG co-immunoprecipitation from HEK293T cells, Western blot (FIG. 4)
[7] = target: endogenous Argonaute 1 (Ago1) (human) (UniProt Q9UL18); experiment: as above
[8] = target: endogenous Argonaute 2 (Ago2) (human) (UniProt Q9UKV8); experiment: FLAG-agarose co-immunoprecipitation, Western blot (FIG. 4)
[9] = target: endogenous Argonaute 1 (Ago1) (human) (UniProt Q9UL18); experiment: as above
[10] = target: endogenous Argonaute 2 (Ago2) (human) (UniProt Q9UKV8); experiment: co-immunoprecipitation, Western blot (FIG. 15)
[11] = target: endogenous Argonaute 2 (Ago2) (human) (UniProt Q9UKV8); experiment: FLAG co-immunoprecipitation from HEK293T lysate, Western blot (FIG. 4, lane 5)
[12] = target: endogenous Argonaute 1 (Ago1) (human) (UniProt Q9UL18); experiment: as above

Measured: binding

B1: FLAG-HA-dominant negative TNRC6A (protein, not shown: small tags and cut ends)
chain: MDADSASSSESERNITIMASGNTGGEKDGLRNSTGLGSQNKFVVGSSSNNVGHGSSTGPWGFSHGAIISTCQVSVDAPESKSESSNNRMNAWGTVSSSSNGGLNPSTLNSASNHGAWPVLENNGLALKGPVGSGSSGINIQCSTIGQMPNNQSINSKVSGGSTHGTWGSLQETCESEVSGTQKVSFSGQPQNITTEMTGPNNTTNFMTSSLPNSGSVQNNELPSSNTGAWRVSTMNHPQMQAPSGMNGTSLSHLSNGESKSGGSYGTTWGAYGSNYSGDKCSGPNGQANGDTVNATLMQPGVNGPMGTNFQVNTNKGGGVWESGAANSQSTSWGSGNGANSGGSRRGWGTPAQNTGTNLPSVEWNKLPSNQHSNDSANGNGKTFTNGWKSTEEEDQGSATSQTNEQSSVWAKTGGTVESDGSTESTGRLEEKGTGESQSRDRRKIDQHTLLQSIVNRTDLDPRVLSNSGWGQTPIKQNTAWDTETSPRGERKTDNGTEAWGSSATQTFNSGACIDKTSPNGNDTSSVSGWGDPKPALRWGDSKGSNCQGGWEDDSAATGMVKSNQWGNCKEEKAAWNDSQKNKQGWGDGQKSSQGWSVSASDNWGETSRNNHWGEANKKSSSGGSDSDRSVSGWNELGKTSSFTWGNNINPNNSSGWDESSKPTPSQGWGDPPKSNQSLGWGDSSKPVSSPDWNKQQDIVGSWGIPPATGKPPGTGWLGGPIPAPAKEEEPTGWEEPSPESIRRKMEIDDGTSAWGDPSKYNYKNVNMWNKNVPNGNSRSDQQAQVHQLLTPASAISNKEASSGSGWGEPWGEPSTPATTVDNGTSAWGKPIDSGPSWGEPIAAASSTSTWGSSSVGPQALSKSGPKSMQDGWCGDDMPLPGNRPTGWEEEEDVEIGMWNSNSSQELNSSLNWPPYTKKMSSKGLSGKKRRRERGMMKGGNKQEEAWINPFVKQFSNISFSRDSPEENVQSNKMDLSGGMLQDKRMEIDKHSLNIGDYNRTVGKGPGSRPQISKESSMERNPYFDKDGIVADESQNMQFMSSQSMKLPPSNSALPNQALGSIAGLGMQNLNSVRQNGNPSMFGVGNTAAQPRGMQQPPAQPLSSSQPNLRAQVPPPLLSPQVPVSLLKYAPNNGGLNPLFGPQQVAMLNQLSQLNQLSQISQLQRLLAQQQRAQSQRSVPSGNRPQQDQQGRPLSVQQQMMQQSRQLDPNLLV
binds: [1] | [2] | [3] | [4] | [5]

B2: FLAG-dominant-negative TNRC6A (protein, not shown: small tags and cut ends)
chain: MDADSASSSESERNITIMASGNTGGEKDGLRNSTGLGSQNKFVVGSSSNNVGHGSSTGPWGFSHGAIISTCQVSVDAPESKSESSNNRMNAWGTVSSSSNGGLNPSTLNSASNHGAWPVLENNGLALKGPVGSGSSGINIQCSTIGQMPNNQSINSKVSGGSTHGTWGSLQETCESEVSGTQKVSFSGQPQNITTEMTGPNNTTNFMTSSLPNSGSVQNNELPSSNTGAWRVSTMNHPQMQAPSGMNGTSLSHLSNGESKSGGSYGTTWGAYGSNYSGDKCSGPNGQANGDTVNATLMQPGVNGPMGTNFQVNTNKGGGVWESGAANSQSTSWGSGNGANSGGSRRGWGTPAQNTGTNLPSVEWNKLPSNQHSNDSANGNGKTFTNGWKSTEEEDQGSATSQTNEQSSVWAKTGGTVESDGSTESTGRLEEKGTGESQSRDRRKIDQHTLLQSIVNRTDLDPRVLSNSGWGQTPIKQNTAWDTETSPRGERKTDNGTEAWGSSATQTFNSGACIDKTSPNGNDTSSVSGWGDPKPALRWGDSKGSNCQGGWEDDSAATGMVKSNQWGNCKEEKAAWNDSQKNKQGWGDGQKSSQGWSVSASDNWGETSRNNHWGEANKKSSSGGSDSDRSVSGWNELGKTSSFTWGNNINPNNSSGWDESSKPTPSQGWGDPPKSNQSLGWGDSSKPVSSPDWNKQQDIVGSWGIPPATGKPPGTGWLGGPIPAPAKEEEPTGWEEPSPESIRRKMEIDDGTSAWGDPSKYNYKNVNMWNKNVPNGNSRSDQQAQVHQLLTPASAISNKEASSGSGWGEPWGEPSTPATTVDNGTSAWGKPIDSGPSWGEPIAAASSTSTWGSSSVGPQALSKSGPKSMQDGWCGDDMPLPGNRPTGWEEEEDVEIGMWNSNSSQELNSSLNWPPYTKKMSSKGLSGKKRRRERGMMKGGNKQEEAWINPFVKQFSNISFSRDSPEENVQSNKMDLSGGMLQDKRMEIDKHSLNIGDYNRTVGKGPGSRPQISKESSMERNPYFDKDGIVADESQNMQFMSSQSMKLPPSNSALPNQALGSIAGLGMQNLNSVRQNGNPSMFGVGNTAAQPRGMQQPPAQPLSSSQPNLRAQVPPPLLSPQVPVSLLKYAPNNGGLNPLFGPQQVAMLNQLSQLNQLSQISQLQRLLAQQQRAQSQRSVPSGNRPQQDQQGRPLSVQQQMMQQSRQLDPNLLV
binds: [6] | [7] | [8] | [9] | [10] | [11] | [12]
